For some assays here: The comparison behind a weaker result is the experiment's own reference, which may not be listed here. For some assays here: The exact form of at least one protein or probe is not confirmed. For some assays here: At least one result comes from cells or an extract, where the contact may be indirect. For some assays here: The direction of at least one scale is not stated here.
Tests used:
[1] = molecular target: Endogenous hERα in MCF7 cells (Homo sapiens) (UniProt P03372); assay: activity in cells; conditions: MCF7 dual luciferase, protein in cells, dose not given here
SNAP-hERα (Homo sapiens) = SNAP-hERα (Homo sapiens) (UniProt P03372); assay: pull-down; conditions: protein in cells; protein details: N-terminal SNAP-tag, expressed in HeLa cells; variant of AptER-1x2(138nt) dimer
[2] = molecular target: Human estrogen receptor alpha (hERα), full-length, unliganded (Homo sapiens) (UniProt P03372); assay: EMSA; conditions: 25 nM hERα; lower affinity than sB63; purified recombinant protein; label: 32P internal; variant of AptER-1(65nt) (sB63)

Protein sequences, listed by entry. Tags and fused reporters are not part of them.
UniProt P03372, whole entry: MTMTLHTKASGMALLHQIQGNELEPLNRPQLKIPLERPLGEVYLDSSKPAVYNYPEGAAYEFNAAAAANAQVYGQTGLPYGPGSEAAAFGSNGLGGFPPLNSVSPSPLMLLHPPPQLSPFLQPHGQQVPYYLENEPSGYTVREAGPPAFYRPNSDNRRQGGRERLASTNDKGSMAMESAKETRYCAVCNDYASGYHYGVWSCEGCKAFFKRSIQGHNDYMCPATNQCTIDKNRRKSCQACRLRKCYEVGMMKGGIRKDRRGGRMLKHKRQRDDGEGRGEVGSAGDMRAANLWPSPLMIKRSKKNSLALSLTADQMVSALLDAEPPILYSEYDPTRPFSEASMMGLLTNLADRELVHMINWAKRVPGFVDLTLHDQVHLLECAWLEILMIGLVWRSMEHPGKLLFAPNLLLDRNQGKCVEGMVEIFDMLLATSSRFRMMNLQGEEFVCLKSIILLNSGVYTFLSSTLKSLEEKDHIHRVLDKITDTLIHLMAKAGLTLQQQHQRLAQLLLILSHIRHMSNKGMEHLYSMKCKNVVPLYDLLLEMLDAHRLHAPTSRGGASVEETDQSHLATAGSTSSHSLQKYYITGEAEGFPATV

Sequence: GAGAAUUCAACUGCCAUCUAGGCCACAGCCGGCGGUCGAACACCAGAGGGCGACUUUGGGUAGUCGAGUAUUAAGUACUACAAGCUUCUGGACUCUU [AptER-4 (97nt expressed)]
- functional effect of the aptamer ([1]; range for three aptamers, least potent, variant of AptER-4): active

Sequence: GAGAGGCACCGCGAACAAAACGCAAGACAGAGUGCCGACAAGAGCACUACAAGCCUCUCUU [AptER-1x1 (61nt expressed)]
- functional effect of the aptamer ([1]; range for three aptamers, second most potent, variant of AptER-1 (clone B63)): active

Sequence: GCGUGACGGGCACCGCGAACAAAACGCAAGACAGAGUGCCGACAAGAGCACUACAAGCCCGUCCAUACUCCGGCACCGCGAACAAAACGCAAGACAGAGUGCCGACAAGAGCACUAACAGCCGGAGGCGCUU [AptER-1x2 (expressed dimer)]
- binding signal (fold over SNAP control) (SNAP-hERα (Homo sapiens)): 292
- functional effect of the aptamer ([1]; range for three aptamers from pSUPER/pSHAG-MAGIC, most potent of the three, variant of AptER-1x2(138nt) dimer): active

Sequence: GGGCAGAGGCACCGCGAACACAACGCAAGACAGAGUGACGACAAGAGCACUACAAGCUUCUGCCC [sB30 (65nt truncated clone B30)]
- binding result [2]: binds more weakly
